Experimental data from PubChem BioAssay AID504444 (National Center for Advancing Translational Sciences (NCATS), 2011).
About 7,500 (2.1%) of roughly 360,000 compounds were called active. Inconclusive results, whose numbers are uncertain, are shown with a selection of clear calls. Calls come from the whole dose curve; as a rule, active = well fitted inhibition curve with a large enough effect; inconclusive = small, poorly fitted or top-dose-only effect, or effect the other way; inactive = flat fitted curve, though single readings scatter. Potencies of inconclusive entries are doubtful fits and often do not repeat.
% is set by controls: 0 for no effect and ±100 for the full control effect; potency is the fitted concentration of half-maximal effect.

Assay: Nrf2 qHTS screen for inhibitors; note: nearly all actives have a fitted effect of over 60% in size
Conditions: A549 ARE-Fluc reporter, luciferase luminescence, 18-24 h; activity change, negative = inhibition: at 46 µM (top of the series)
In short: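 In this cell-based qHTS, ARE-driven firefly luciferase in A549 cells reports Nrf2 activity; the luminescent signal after BugLite lysis is the measured value, with a prior CellTiter-Fluor read for cell health.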
For `Brc1ccc(C2=Nc3cccc4cccc(c34)N2)o1`, the Potency was inconclusive: 18.4 µM [activator, partial curve, poor fit].
In the case of `Cc1cccc(-c2nc(N)nc(N)n2)c1`, the Potency is reported as inconclusive: 7.31 µM [activator, partial curve].
With `CCN1CCC(O)(/C=C/c2ccc(C(C)C)cc2)C(C(=O)/C=C/c2ccc(C(C)C)cc2)C1` (stereo unspecified) the “activity change, negative = inhibition” value was inactive: -22.4%.
With `c1ccc(CN=C2NN=C(c3ccccc3)CS2)cc1` the Potency was inconclusive: 29.1 µM [falling, single point].
For `CCOc1ccccc1C1NC(=O)NC(C)=C1C(=O)OC1CCCCC1` (stereo unspecified), the Potency was active: 20.6 µM.
In the case of `CCc1ccc(-c2nc(CN3CCCC(C(=O)NCCc4ccc(OC)c(OC)c4)C3)c(C)o2)cc1` (stereo unspecified), the Potency is reported as inconclusive: 29.1 µM [falling, single point].
For `COc1c(CC=C(C)C)cc(C2CC(=O)c3c(O)cc(O)cc3O2)cc1CC=C(C)C` (stereo unspecified), the Potency was inconclusive: 25.9 µM [falling, single point].
With `CC(C)CNC(=O)c1c(F)c(F)c(F)c(F)c1F` the Potency was inconclusive: 18.4 µM [activator, partial curve].
In the case of `O=C(NNC(=O)c1ccc(S(=O)(=O)N2CCCCC2)cc1)c1ccc(F)cc1`, the Potency is reported as inconclusive: 32.6 µM [falling, partial curve, poor fit].
With `CCc1cccc(C)c1Nc1nc2ccccc2n2cnnc12` the “activity change, negative = inhibition” value was inactive: -20.8%.
For `Cc1ccc(S(=O)(=O)N(CC(=O)Nc2ccccc2-c2ccccc2)c2ccc(C)cc2C)cc1`, the Potency was inconclusive: 0.0065 µM [falling, partial curve, poor fit].
For `COC(=O)c1ccccc1S(=O)(=O)N1CCC(c2nc3ccccc3o2)CC1`, the “activity change, negative = inhibition” value was inactive: -28.8%.
For `Cc1cccc(C)c1NC(=O)C1CC2CCC1C2` (stereo unspecified), the Potency was inconclusive: 20.6 µM [activator, single point].
For `COCCCN1C(=O)C(=O)/C(=C(/O)c2ccc(OC)cc2)C1c1ccc(O)c(OC)c1` (stereo unspecified), the Potency was inconclusive: 2.91 µM [activator, partial curve, poor fit].
With `COC(=O)C(=O)C/C(=N/Nc1ncnc2ccccc12)c1ccc(Cl)cc1` the “activity change, negative = inhibition” value was inactive: -4.22%.
With `COc1ccc(-c2[nH]c(-c3ccccc3)nc2SCC(=O)NC2CCCC2)cc1` the Potency was “inactive”.
With `COc1ccc(-c2cc(NCc3ccc(C)cc3)n3cnnc3n2)cc1` the Potency was inconclusive: 18.4 µM [falling, single point].
With `O=c1oc2c3c4c(cc2c2c1CCC2)OCCN4CCC3` the “activity change, negative = inhibition” value was inactive: -10.1%.
With `CCOC(=S)SCc1cn2cccc(C)c2n1` the Potency was inconclusive: 23.1 µM [falling, partial curve, poor fit].
In the case of `Cc1nnc(SC(C)C(=O)Nc2ccc(S(=O)(=O)N3CCCCCC3)cc2)s1` (stereo unspecified), the “activity change, negative = inhibition” value is reported as inactive: -15%.
With `CCN(CC)S(=O)(=O)c1ccc(N2CCOCC2)c(NS(=O)(=O)c2ccc(C)c(C)c2)c1` the “activity change, negative = inhibition” value was inactive: 5.2%.
In the case of `O=C1/C(=C/c2cccs2)Cc2ccccc21`, the “activity change, negative = inhibition” value is reported as inactive: 1.97%.
With `NNC(=O)C(C(=O)OCc1ccccc1)c1ccccc1` (stereo unspecified) the Potency was inconclusive: 8.2 µM [activator, partial curve, poor fit].
With `Cc1ccc(C(=O)COc2nc(C)cc(C)c2C#N)cc1` the “activity change, negative = inhibition” value was inactive: -29.6%.
With `CCOC(=O)c1ccc(N2C(=O)c3[nH]nc(-c4ccccc4)c3C2c2cccs2)cc1` (stereo unspecified) the Potency was inconclusive: 13 µM [falling, partial curve, poor fit].
In the case of `O=C(CSc1nc2c(c(=O)[nH]1)CN(Cc1ccc(F)cc1)CC2)Nc1cccc(C(F)(F)F)c1`, the Potency is reported as inconclusive: 32.6 µM [falling, partial curve, poor fit].
For `Cc1cc(C)nc(-n2nc(C)c3c2NC(=O)CC3c2ccccc2OC(C)C)n1` (stereo unspecified), the “activity change, negative = inhibition” value was inactive: -12.2%.
With `COc1ccc(NC(=O)Cn2c(=O)n(CCc3ccccc3)c(=O)c3sc4ccccc4c32)cc1` the Potency was inconclusive: 13 µM [activator, partial curve, poor fit].
With `COC(=O)C1=C(C)NC(C)=C(C(=O)OC)C1c1ccc(-c2cccc(Cl)c2Cl)o1` the Potency was inconclusive: 11.6 µM [falling, partial curve, poor fit].
For `O=C(NCCCN1CCOCC1)c1ccc(-n2nc(C(F)(F)F)cc2-c2cccs2)cc1`, the Potency was inconclusive: 29.1 µM [falling, single point].
For `COc1ccccc1NC(=O)c1cc(C(=O)Nc2ccccc2OC)n(C)n1`, the Potency was inconclusive: 0.184 µM [falling, full curve, poor fit].
With `Fc1ccc(Cn2nnc(-c3ccc(Cl)cc3)n2)cc1` the Potency was inconclusive: 32.6 µM [activator, partial curve, poor fit].
For `COc1ccc2c(c1)CCc1c(C(=O)N3CCCCCC3)noc1-2`, the Potency was inconclusive: 29.1 µM [falling, single point].
In the case of `Cc1c(C(=O)OCC(=O)N2C(C)CCCC2C)oc2ccccc12` (stereo unspecified), the Potency is reported as inconclusive: 2.31 µM [activator, full curve].
In the case of `Cc1cc2c(cc1C)CSC(c1c(O)ccc3ccccc13)SC2`, the Potency is reported as inconclusive: 20.6 µM [falling, single point].
With `COc1cc(/C=C/C(=O)OCC(=O)NCc2ccco2)ccc1O` the “activity change, negative = inhibition” value was inactive: 1.88%.
In the case of `Cc1cccc(C)c1NC(=O)CSc1ncnc2[nH]ncc12`, the “activity change, negative = inhibition” value is reported as inactive: -10.7%.
With `CC(=O)Nc1ccc2nc(NC(=O)C(Cl)(Cl)Cl)sc2c1` the Potency was inconclusive: 2.59 µM [activator, full curve, poor fit].
With `Cc1ccc(NC(=S)N(Cc2cccc(Br)c2)CC2CCC(C(=O)O)CC2)cc1` (stereo unspecified) the Potency was inconclusive: 11.6 µM [activator, partial curve, poor fit].
With `O=C(CC(C(=O)O)c1ccc(F)cc1)c1ccc(Cl)cc1` (stereo unspecified) the Potency was inconclusive: 29.1 µM [falling, single point].
With `COCCCn1c(C(=O)NCCC2=CCCCC2)cc2c(=O)n3cccc(C)c3nc21` the Potency was inconclusive: 16.4 µM [falling, partial curve, poor fit].
For `c1ccc(Cn2nnnc2C(c2ccncc2)N2CCOCC2)cc1` (stereo unspecified), the “activity change, negative = inhibition” value was inactive: 8.1%.
With `Cc1ccc(CC(=O)N2CCN(S(=O)(=O)c3ccccc3)CC2)cc1C` the Potency was inconclusive: 20.6 µM [falling, partial curve].
With `CC(=O)Nc1cccc(NC(=O)CSc2ncc(-c3ccccc3)[nH]2)c1` the Potency was inconclusive: 3.26 µM [activator, full curve].
For `Cc1cc(C)c(C(=O)NC2CC(C)(C)Cc3c2cnn3-c2cccc(F)c2)[nH]1` (stereo unspecified), the Potency was inconclusive: 20.6 µM [falling, partial curve, poor fit].
With `CCOc1ccc(OCC)c(NC(=O)CN(c2ccc(C)cc2)S(=O)(=O)c2c(C)n[nH]c2C)c1` the Potency was inconclusive: 16.4 µM [falling, single point].
For `COc1ccc(/C=N\NC(=O)C2=NNC(=O)C2C)cc1` (stereo unspecified), the Potency was inconclusive: 10.3 µM [falling, partial curve].
With `Cc1cccc(NC(=S)NNC(=S)NCc2ccccc2)c1` the Potency was inconclusive: 23.1 µM [activator, partial curve, poor fit].
In the case of `COc1cccc(-c2cc(C(=O)N3CC4(C)CC3CC(C)(C)C4)no2)c1` (stereo unspecified), the Potency is reported as inconclusive: 20.6 µM [falling, single point].
With `Cc1ccc(-c2cc(C(=O)NCC3CCCO3)no2)cc1` (stereo unspecified) the Potency was inconclusive: 0.411 µM [activator, full curve, poor fit].
With `COc1ccccc1N1CCN(C(c2ccccc2)c2nnc(-c3ccccc3Cl)o2)CC1` (stereo unspecified) the Potency was inconclusive: 25.9 µM [activator, partial curve, poor fit].
With `CCN(CC)CCN1C(=O)c2ccccc2NC1c1ccc(F)cc1` (stereo unspecified) the “activity change, negative = inhibition” value was inactive: -2.24%.
For `CCOC(=O)c1c(C)[nH]c(C)c1S(=O)(=O)NCCN1CCN(c2cc(Cl)ccc2C)CC1`, the Potency was inconclusive: 29.1 µM [falling, single point].
For `S=C(NCc1cccs1)NCC1CCCO1` (stereo unspecified), the Potency was inconclusive: 3.66 µM [activator, full curve, poor fit].
With `Fc1ccccc1CSc1nnc(-c2cccs2)o1` the Potency was inconclusive: 3.26 µM [activator, partial curve].
For `CCSC1=N/C(=C\c2ccc(OC)cc2)C(=O)N1`, the Potency was inconclusive: 3.26 µM [activator, single point].
For `CCc1ccc(NC(=O)c2c(Cl)nc(C)c(Cl)c2C)cc1`, the Potency was inconclusive: 29.1 µM [falling, single point].
For `C=CCNc1nc(N2CCOCC2)c(C#N)c2c1CN(C)CC2`, the Potency was inconclusive: 4.61 µM [activator, full curve, poor fit].
In the case of `Cc1cccc(OCCN2C(=O)c3ccccc3C2=O)c1`, the Potency is reported as inconclusive: 16.4 µM [activator, partial curve].
In the case of `CC(C)(C)CC(=O)Nc1ccccc1N1CCN(c2ccc(F)cc2)CC1`, the Potency is reported as inconclusive: 20.6 µM [falling, partial curve, poor fit].
For `N#CC1=C(N)C(C#N)(C#N)C(c2ccc[nH]2)C2CCCC=C12` (stereo unspecified), the Potency was inconclusive: 0.184 µM [falling, full curve, poor fit].
In the case of `O=C(COc1ccccc1)Nc1ccccc1F`, the Potency is reported as inconclusive: 11.6 µM [activator, partial curve].
For `Cc1ccc(-n2c(O)c(/C=N/NC(=O)C3COc4ccccc4O3)c3ccccc3c2=O)cc1` (stereo unspecified), the Potency was inconclusive: 20.6 µM [falling, partial curve].
In the case of `O=C(Nc1cc(Br)ccc1O)c1cc(-c2ccco2)on1`, the Potency is reported as inconclusive: 29.1 µM [falling, single point].
With `CCc1nnc(NC(=O)c2ccc(Br)c(S(=O)(=O)N3CCOCC3)c2)s1` the Potency was inconclusive: 20.6 µM [falling, single point].
In the case of `CCn1c(Cl)c(C=O)s/c1=N\S(=O)(=O)c1ccccc1`, the Potency is reported as inconclusive: 29.1 µM [falling, single point].
